The target in assay [1] is pGBKT7-SlGrx9 (tomato (Solanum lycopersicum)). Description: two-hybrid; pairwise; pGADT7-SlTrxh as prey, pGBKT7-SlGrx9 as bait; yeast Y2H Gold; growth on SD/-Leu/-Trp/-His/-Ade.
Assay [2] addresses SlGrx9-nLUC (tomato (Solanum lycopersicum)). Kind of assay: split reporter; luciferase complementation assay (LCA) in N. benthamiana leaves, 48-72 h after infiltration; 1 mM D-luciferin; also with nitrate, GSNO (NO donor) or cPTIO (NO scavenger) added.

These are yes or no findings as the source states them, for the method shown. Binding can be weak; no strength is given. For some assays here: In cells and extracts the contact can be indirect. For some assays here: Tags and fused reporters may be left off the sequences shown.

B1: pGADT7-SlTrxh (protein, UniProt Q9LKW0 1-175)
chain: MQAASLAFHPPALRTSPSYLSSKLPHHLNYSLFKHAPSTSTLSLTQVLSRNTICKPPAVGKYVREDYLVKKLSAKEIQELIKGERNVPLIIDFYATWCGPCILMAQELEMLAVEYENNALIVKVDTDDEYEFARDMQVRGLPTLYFISPDSSKDAIRTEGLIPIQMMRDIIDNDL
For B1, the binding result in assay [1] is listed as “binds”.

B2: cLUC-SlTrxh (protein, UniProt Q9LKW0 65-175)
chain: EDYLVKKLSAKEIQELIKGERNVPLIIDFYATWCGPCILMAQELEMLAVEYENNALIVKVDTDDEYEFARDMQVRGLPTLYFISPDSSKDAIRTEGLIPIQMMRDIIDNDL
As to B2, the binding entry in assay [2] was “binds”.

Source of the values: PMC11374535.
